The text below walks through data of PMC10202695.

Chains of the proteins cited; added tags and fusions are not shown. Residues count along the entry.
UniProt P21796: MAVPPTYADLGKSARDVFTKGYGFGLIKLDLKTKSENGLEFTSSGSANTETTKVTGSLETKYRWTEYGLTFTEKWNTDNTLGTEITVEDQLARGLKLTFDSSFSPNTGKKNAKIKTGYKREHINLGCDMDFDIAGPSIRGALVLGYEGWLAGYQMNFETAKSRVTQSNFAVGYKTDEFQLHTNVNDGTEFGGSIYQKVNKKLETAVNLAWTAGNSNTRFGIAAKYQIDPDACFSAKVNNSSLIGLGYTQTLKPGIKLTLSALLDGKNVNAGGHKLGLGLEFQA
UniProt P38646, residues 47-679: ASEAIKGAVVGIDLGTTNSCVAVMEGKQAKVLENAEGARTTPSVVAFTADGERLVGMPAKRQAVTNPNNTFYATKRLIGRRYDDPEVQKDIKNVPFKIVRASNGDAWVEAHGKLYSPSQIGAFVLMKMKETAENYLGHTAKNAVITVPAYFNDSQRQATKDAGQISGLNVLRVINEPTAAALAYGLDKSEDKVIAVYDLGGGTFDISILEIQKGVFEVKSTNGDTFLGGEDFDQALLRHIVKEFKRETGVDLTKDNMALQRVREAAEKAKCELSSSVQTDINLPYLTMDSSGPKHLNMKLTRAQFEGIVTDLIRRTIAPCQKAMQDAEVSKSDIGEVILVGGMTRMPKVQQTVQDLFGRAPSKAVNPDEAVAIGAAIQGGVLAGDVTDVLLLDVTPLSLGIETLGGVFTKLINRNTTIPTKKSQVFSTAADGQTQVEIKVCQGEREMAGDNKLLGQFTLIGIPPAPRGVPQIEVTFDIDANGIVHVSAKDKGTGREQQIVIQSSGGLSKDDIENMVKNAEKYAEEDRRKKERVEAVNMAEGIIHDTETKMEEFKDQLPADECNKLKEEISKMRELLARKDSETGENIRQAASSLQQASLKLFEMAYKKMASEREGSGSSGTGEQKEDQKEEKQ
UniProt Q15388: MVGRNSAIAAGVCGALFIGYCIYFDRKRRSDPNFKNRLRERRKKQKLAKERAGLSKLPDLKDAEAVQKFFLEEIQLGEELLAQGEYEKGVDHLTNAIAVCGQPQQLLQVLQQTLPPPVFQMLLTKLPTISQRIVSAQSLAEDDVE

No constants are given. Whether binding was seen depends on the method and setting. In cells and extracts the contact can be indirect. A yes stands for co-enrichment or nearness to the bait. Other partners may have been found. No binding means not detected with the bait. Tags and fused reporters may be left off the sequences shown.

This test addresses T1, Myc-tagged WFS1 (Wolfram syndrome 1; wolframin) (UniProt O76024).
T1 sequence: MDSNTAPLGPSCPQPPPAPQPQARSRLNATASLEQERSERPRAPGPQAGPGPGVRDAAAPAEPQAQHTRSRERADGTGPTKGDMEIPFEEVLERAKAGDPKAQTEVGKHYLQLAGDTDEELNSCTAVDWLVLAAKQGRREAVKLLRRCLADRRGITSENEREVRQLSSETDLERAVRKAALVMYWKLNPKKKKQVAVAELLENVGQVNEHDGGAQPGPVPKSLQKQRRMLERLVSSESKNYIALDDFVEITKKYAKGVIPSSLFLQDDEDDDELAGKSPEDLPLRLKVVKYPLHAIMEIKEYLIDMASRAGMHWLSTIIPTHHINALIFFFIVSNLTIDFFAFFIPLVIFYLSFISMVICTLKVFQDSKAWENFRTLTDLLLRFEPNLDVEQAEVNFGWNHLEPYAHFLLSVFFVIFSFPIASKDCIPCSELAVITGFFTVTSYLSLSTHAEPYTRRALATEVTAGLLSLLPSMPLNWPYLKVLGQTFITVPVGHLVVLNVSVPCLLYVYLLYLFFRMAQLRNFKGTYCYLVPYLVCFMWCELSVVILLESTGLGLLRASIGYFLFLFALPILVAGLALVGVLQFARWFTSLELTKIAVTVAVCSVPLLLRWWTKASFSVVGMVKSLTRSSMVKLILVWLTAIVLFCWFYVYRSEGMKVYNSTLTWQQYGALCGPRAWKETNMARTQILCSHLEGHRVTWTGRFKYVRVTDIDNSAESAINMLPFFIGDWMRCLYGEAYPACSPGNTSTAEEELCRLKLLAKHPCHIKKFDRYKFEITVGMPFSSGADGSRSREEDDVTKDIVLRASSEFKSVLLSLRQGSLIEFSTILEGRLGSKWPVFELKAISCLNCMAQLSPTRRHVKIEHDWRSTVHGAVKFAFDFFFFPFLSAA
Kind of test: affinity purification with mass spectrometry; lysate of HEK293 cells overexpressing Myc-WFS1; IP with WFS1 antibody or IgG from non-immunized animals (Dynabeads Protein A); SDS-PAGE, in-gel tryptic digestion, LC-MS/MS.
Consider “voltage-dependent anion channel 1 (VDAC1), HEK293 (from UniProt P21796 1-283)”, for which the binding result is “binds”.
Consider “chaperone glucose-regulated protein GRP75 (from UniProt P38646 47-679)”, for which the binding entry is given as “binds”.
In the case of TOM20 (from UniProt Q15388 1-145), the binding result is “no binding”.
